This is an account of results in PMC11170731.

By UniProt entry, the sequences of proteins in these tests, tags left out. Where a name states a change or a piece, a line headed by the entry shows the natural chain unless it says otherwise.
UniProt Q08924: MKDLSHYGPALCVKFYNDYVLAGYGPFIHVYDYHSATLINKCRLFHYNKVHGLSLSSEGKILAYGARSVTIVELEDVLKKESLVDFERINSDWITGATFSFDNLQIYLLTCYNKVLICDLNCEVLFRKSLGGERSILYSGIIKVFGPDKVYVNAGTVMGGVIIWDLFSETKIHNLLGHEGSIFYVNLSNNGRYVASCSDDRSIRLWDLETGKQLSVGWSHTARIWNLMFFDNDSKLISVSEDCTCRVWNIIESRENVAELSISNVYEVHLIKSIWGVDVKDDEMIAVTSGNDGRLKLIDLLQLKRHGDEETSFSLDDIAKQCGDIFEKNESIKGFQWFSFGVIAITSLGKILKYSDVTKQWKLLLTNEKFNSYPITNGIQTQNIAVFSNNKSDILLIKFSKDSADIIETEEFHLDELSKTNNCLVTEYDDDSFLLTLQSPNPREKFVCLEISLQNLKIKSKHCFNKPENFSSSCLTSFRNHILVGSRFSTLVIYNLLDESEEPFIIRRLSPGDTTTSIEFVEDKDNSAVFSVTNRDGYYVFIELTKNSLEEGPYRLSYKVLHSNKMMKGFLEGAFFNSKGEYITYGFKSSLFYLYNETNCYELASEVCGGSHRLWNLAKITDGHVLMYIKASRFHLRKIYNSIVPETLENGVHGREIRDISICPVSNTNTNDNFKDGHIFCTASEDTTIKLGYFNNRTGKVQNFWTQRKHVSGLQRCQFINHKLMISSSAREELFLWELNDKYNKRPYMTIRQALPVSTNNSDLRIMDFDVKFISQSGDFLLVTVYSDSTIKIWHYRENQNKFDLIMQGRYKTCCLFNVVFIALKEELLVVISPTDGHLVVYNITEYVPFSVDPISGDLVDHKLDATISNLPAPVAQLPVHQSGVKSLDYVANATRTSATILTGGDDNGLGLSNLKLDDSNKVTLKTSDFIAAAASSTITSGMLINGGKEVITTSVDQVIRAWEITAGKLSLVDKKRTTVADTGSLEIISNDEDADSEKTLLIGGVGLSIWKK

These are yes or no findings as the source states them, for the method shown. In cells and extracts the contact can be indirect. Binding calls can cover weak binding; strength is not graded here. Sequences can lack the tags named with a protein.

In assay [1] the target is MORF-tagged Trm734-SDD200AAA (S. cerevisiae) (UniProt Q08924). Description: co-IP; MORF-tagged Trm734 variants coexpressed with Trm7-9myc in yeast; MORF-tagged proteins purified from crude extracts with IgG-Sepharose beads (bind the ZZ domain), eluted in SDS sample buffer; immunoblot with anti-protein A and anti-c-myc. A general note: Immunoblotting shows a protein as a band on a membrane.

In assay [2] the target is MORF-tagged Trm734-WSH220AAA (S. cerevisiae) (UniProt Q08924). Described as above.

B1: Trm7-9myc (enzyme, UniProt P38238 1-310)
chain: MGKSSKDKRDLYYRKAKEQGYRARSAFKLLQLNDQFHFLDDPNLKRVVDLCAAPGSWSQVLSRKLFDESPSSDKEDRKIVSVDLQPMSPIPHVTTLQADITHPKTLARILKLFGNEKADFVCSDGAPDVTGLHDLDEYVQQQLIMSALQLTACILKKGGTFVAKIFRGRDIDMLYSQLGYLFDKIVCAKPRSSRGTSLEAFIVCLGYNPPSNWTPKLDVNTSVDEFFQGCFLNKLCISDKLSHWNEEERNIAEFMACGSLQSFDSDATYHDLPSSVAGTSSSLDPVQSPTNPPYKKALELKRSGKLTRSV
Take B1: the binding result in assay [1] and in assay [2] was “binds” in each case.
